In article PMC10577314 (Frontiers in Cell and Developmental Biology, 2023):
These are yes or no findings as the source states them, for the method shown. For part of these data: Tags and fused reporters may be left off the sequences shown.

By UniProt entry, the sequences of proteins in these tests, tags left out. Where a name states a change or a piece, a line headed by the entry shows the natural chain unless it says otherwise. Chains listed by the source or under a name are the forms on record and can include a tag or linker. Residues count along the entry.
MBP-His10-Sec8c (Q62824, residues 544-975): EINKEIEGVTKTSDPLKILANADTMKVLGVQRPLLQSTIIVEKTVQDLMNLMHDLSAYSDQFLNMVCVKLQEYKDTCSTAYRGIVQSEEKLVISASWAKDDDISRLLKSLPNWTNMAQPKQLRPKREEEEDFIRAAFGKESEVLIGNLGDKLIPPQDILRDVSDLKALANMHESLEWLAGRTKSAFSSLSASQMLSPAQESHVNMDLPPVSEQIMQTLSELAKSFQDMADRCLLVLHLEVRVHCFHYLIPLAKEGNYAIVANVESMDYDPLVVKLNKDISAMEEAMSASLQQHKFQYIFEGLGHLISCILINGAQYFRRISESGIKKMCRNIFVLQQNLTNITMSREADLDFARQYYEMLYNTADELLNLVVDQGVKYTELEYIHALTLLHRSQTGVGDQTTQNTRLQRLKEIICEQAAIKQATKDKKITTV
MBP-His10-Sec8c-Δ958–971 (Q62824, form named): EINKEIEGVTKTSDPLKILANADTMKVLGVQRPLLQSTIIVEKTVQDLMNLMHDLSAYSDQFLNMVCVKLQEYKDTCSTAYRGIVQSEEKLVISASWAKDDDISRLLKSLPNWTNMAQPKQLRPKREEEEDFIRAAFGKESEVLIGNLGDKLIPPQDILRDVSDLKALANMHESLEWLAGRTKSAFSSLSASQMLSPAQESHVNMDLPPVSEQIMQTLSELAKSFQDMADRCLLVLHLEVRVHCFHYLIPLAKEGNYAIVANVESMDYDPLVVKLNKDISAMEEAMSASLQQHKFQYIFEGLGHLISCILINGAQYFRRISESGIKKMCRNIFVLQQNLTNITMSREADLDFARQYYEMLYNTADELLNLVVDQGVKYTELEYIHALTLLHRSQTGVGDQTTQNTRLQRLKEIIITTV

Key:
[1] = biological target: C-terminal half of Sec8 (Sec8c, aa544–975) (rat) (UniProt Q62824); test: condition: 300 µM SAP102 in the syringe, 30 µM Sec8c in the cell; ITC; 300 µM SAP102 truncation in the syringe titrated into 30 µM Sec8c (or Sec8c-Δ958–971) in the cell; 20 mM HEPES pH 7.5, 100 mM NaCl, 1 mM DTT; one-set-of-sites model; control titration (protein to buffer) subtracted; both …
[2] = biological target: C-terminal half of Sec8 (Sec8c, aa544–975) (rat) (UniProt Q62824); test: SEC; Sec8c or Sec8c-Δ958–971 (1 mg/mL) mixed with SAP102 truncation at molar ratio 1:2, 4°C for 30 min; Superdex 200 Increase 10/300 GL; 20 mM HEPES pH 7.5, 100 mM NaCl, 1 mM DTT; peak fractions checked by SDS-PAGE; both purified
MBP-His10-Sec8c (rat) = MBP-His10-Sec8c (rat) (UniProt Q62824); test: pull-down; MBP-His10-Sec8c or MBP-His10-Sec8c-Δ958–971 (1 mg/mL) mixed with excess SAP102 truncation (molar ratio 1:2–5), held on amylose beads, 4°C for 1–2 h; 20 mM HEPES pH 7.5, 100 mM NaCl, 1 mM DTT, 1% glycerol; SDS-PAGE; MBP-His10 tag as negative control; both purified
[3] = biological target: MBP-His10-Sec8c-Δ958–971 (rat) (UniProt Q62824); test: SEC; Sec8c or Sec8c-Δ958–971 (1 mg/mL) mixed with SAP102 truncation at molar ratio 1:2, 4°C for 30 min; Superdex 200 Increase 10/300 GL; 20 mM HEPES pH 7.5, 100 mM NaCl, 1 mM DTT; peak fractions checked by SDS-PAGE; both purified
[4] = biological target: Sec8c-Δ958–971 (aa544–975/Δ958–971) (rat) (UniProt Q62824); test: condition: 300 µM SAP102 in the syringe, 30 µM Sec8c-Δ958–971 in the cell; ITC; 300 µM SAP102 truncation in the syringe titrated into 30 µM Sec8c (or Sec8c-Δ958–971) in the cell; 20 mM HEPES pH 7.5, 100 mM NaCl, 1 mM DTT; one-set-of-sites model; control titration (protein to buffer) subtracted; both purified
[5] = biological target: MBP-His10-Sec8c-Δ958–971 (rat) (UniProt Q62824); test: pull-down; MBP-His10-Sec8c or MBP-His10-Sec8c-Δ958–971 (1 mg/mL) mixed with excess SAP102 truncation (molar ratio 1:2–5), held on amylose beads, 4°C for 1–2 h; 20 mM HEPES pH 7.5, 100 mM NaCl, 1 mM DTT, 1% glycerol; SDS-PAGE; MBP-His10 tag as negative control; both purified

Binder	binding [1]	binding [2]	binding (MBP-His10-Sec8c (rat))	other results
SAP102 PDZ1 (aa144–236) (domain or fragment, UniProt Q62936 144-236) MFKYEEIVLERGNSGLGFSIAGGIDNPHVPDDPGIFITKIIPGGAAAMDGRLGVNDCVLRVNEVDVSEVVHSRAVEALKEAGPVVRLVVRRRQ	no binding	no binding	–	–
SAP102 PDZ3 (aa399–493) (domain or fragment, UniProt Q62936 399-493) TREPRKIILHKGSTGLGFNIVGGEDGEGIFVSFILAGGPADLSGELRRGDRILSVNGVNLRNATHEQAAAALKRAGQSVTIVAQYRPEEYSRFES	no binding	no binding	–	–
His6-SUMO-SAP102-PDZ1 (domain or fragment, UniProt Q62936 144-236) MFKYEEIVLERGNSGLGFSIAGGIDNPHVPDDPGIFITKIIPGGAAAMDGRLGVNDCVLRVNEVDVSEVVHSRAVEALKEAGPVVRLVVRRRQ	–	–	no binding	–
His6-SUMO-SAP102-PDZ3 (domain or fragment, UniProt Q62936 399-493) TREPRKIILHKGSTGLGFNIVGGEDGEGIFVSFILAGGPADLSGELRRGDRILSVNGVNLRNATHEQAAAALKRAGQSVTIVAQYRPEEYSRFES	–	–	no binding	–
SAP102 PDZ1-PDZ2 (aa144–331) (domain or fragment, rat, UniProt Q62936 144-331, looked up, also called tandem PDZ1-PDZ2; source: E. coli BL21-DE3, purified (Ni-HiTrap HP, SENP2 cleavage, Superdex 200); not shown: His6-SUMO, N-terminal, cleaved) MFKYEEIVLERGNSGLGFSIAGGIDNPHVPDDPGIFITKIIPGGAAAMDGRLGVNDCVLRVNEVDVSEVVHSRAVEALKEAGPVVRLVVRRRQPPPETIMEVNLLKGPKGLGFSIAGGIGNQHIPGDNSIYITKIIEGGAAQKDGRLQIGDRLLAVNNTNLQDVRHEEAVASLKNTSDMVYLKVAKPG	–	–	–	binding [3]: no binding; binding [4]: no binding
His6-SUMO-SAP102-PDZ1-PDZ2 (domain or fragment, UniProt Q62936 144-331) MFKYEEIVLERGNSGLGFSIAGGIDNPHVPDDPGIFITKIIPGGAAAMDGRLGVNDCVLRVNEVDVSEVVHSRAVEALKEAGPVVRLVVRRRQPPPETIMEVNLLKGPKGLGFSIAGGIGNQHIPGDNSIYITKIIEGGAAQKDGRLQIGDRLLAVNNTNLQDVRHEEAVASLKNTSDMVYLKVAKPG	–	–	–	binding [5]: no binding
